From patent US6623741B1, “Methods and compositions for inhibition of membrane fusion-associated events including RSV transmission” (Trimeris, Inc., priority 2000, dated 2003)
For at least one compound, name, drawing or mass did not settle the structure.

Sequences of proteins named here, by UniProt entry; tags and fusion partners are left off. Residues count along the entry.
UniProt P03420, 142-302: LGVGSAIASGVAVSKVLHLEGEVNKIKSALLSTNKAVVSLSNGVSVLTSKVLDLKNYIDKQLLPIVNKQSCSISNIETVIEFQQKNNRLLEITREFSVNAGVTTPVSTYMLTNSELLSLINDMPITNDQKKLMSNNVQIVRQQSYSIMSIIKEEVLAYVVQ

Molecular target: T1, DP107-like domain of the RSV F1-protein (MF5.1 fusion protein) (Human respiratory syncytial virus A, UniProt P03420)
T1 construct: made in house
Conditions: read-out: binding affinity for the DP107-like domain of RSV F1 protein
Procedure: After incubation and washing, unbound Fab-d is removed from the plates and bound Fab-d is quantitated. A no-inhibitor control should also be conducted.
Such an assay takes advantage of accepted radioligand and receptor binding principles. (See, for example, Yamamura, H. I. et al., 1985, “Neurotransmitter Receptor Binding”, 2nd ed., Raven Press, NY.) As above, M41Δ78 is immobilized onto a solid support such as a microtiter well. […] Specific binding to M41Δ78 is defined as the difference of the binding of the labeled DP178 preparation in the microtiter wells (totals) and the binding in identical wells containing, in addition, excess unlabeled DP178 (nonspecifics).
Specifically, the DNA sequence corresponding amino acid residues 142-302 of the RSV F1 protein was amplified by PCR and cloned into the Xmn I site of the expression vector pMal-p2 (New England Biolab) to give MF5.1. These amino acid residues correspond to the extracellular domain of the RSV F1 protein including its DP107 region but excluding the DP178 region.
Cell fusion assays were performed with each of the peptides as described in Section 17 above.

For “Ac-VYPSDEFDASISQVNEKINQALAYIRKADELLHNV-NH2 [Peptide T1091]”, the Kd was 19 nM.
